From PubChem BioAssay AID330 (DTP/NCI, 2004) come the findings set out here.

The subject of this assay is P388 leukemia ip, CD2F1 mice, survival T/C. Nature of the assay: NCI In Vivo Anticancer Drug Screen. Data for tumor model P388 Leukemia (intraperitoneal) in CD2F1 (CDF1) mice. Conditions: T/C endpoint: median survival time, higher T/C = longer survival.
The mark [1] stands for this setting: dose: 200.0 mg/kg/injection, schedule: Q01DX005 (ip), vehicle: Klucel (hydroxypropylcellulose) (HPC).
Where [2] appears, read: dose: 240.0 mg/kg/injection, schedule: Q01DX005 (ip), vehicle: saline with Tween-80.

The list does not hold the whole screen: it gathers tests that were run many times, whatever their T/C, doses with no T/C, and many T/C values between a quarter and a half above the control. Other doses and runs of a compound stand elsewhere. T/C gives the treated animals as a percentage of the vehicle group. Some doses have a count of surviving animals in place of a T/C: the source holds a T/C of zero for them, seemingly a mark for toxic or unscored doses. Some survivor counts are full or nearly so, which does not show that the dose was tolerated: the source hardly ever lists a survival T/C far under the control, and the zero likely stands for such cases as well. Counts of survivors are from the toxicity check (mostly the fifth day) where no day follows; animals may have died later. Schedules are NCI's codes, taken here to give the interval after Q, in days (D) or hours (H), and the number of doses after X. For survival time, this PubChem deposit counts one and a half times the control or more as active, and values a quarter to a half above the control carry no call in these data; other NCI protocols may use other cut-offs.

As for `C/C(=N\NC(=O)c1ccccc1)c1cccc(/C(C)=N/NC(=O)c2ccccc2)n1.O=S(=O)([O-])[O-].[Fe+2]`, under “dose: 100.0 mg/kg/injection, schedule: Q01DX001 (ip), vehicle: saline with Tween-80”, the T/C was 126 % of control. For the same molecule, the survivor count is, setting by setting: (dose: 200.0 mg/kg/injection, schedule: Q01DX001 (ip), vehicle: saline with Tween-80) 0 of 6; (dose: 400.0 mg/kg/injection, schedule: Q01DX001 (ip), vehicle: saline with Tween-80) 0 of 6.

Take `O=c1[nH]cnc(O)c1C1C=CC=CC=C1`: the survivor count under setting [1] is 1 of 6.

Consider `CCCN(CCNc1cc(OC)cc2cccnc12)C(C)CC` (configuration not stated), for which the survivor count (dose: 200.0 mg/kg/injection, schedule: Q01DX005 (ip), vehicle: saline) is listed as 0 of 5.

As to `CCCC[N+](CC)(CC)CCCNC1=CC(=O)C(NCCC[N+](CC)(CC)CCCC)=CC1=O`, the survivor count (dose: 1.56 mg/kg/injection, schedule: Q04DX002 (ip), vehicle: saline) was 0 of 6; the survivor count (dose: 3.12 mg/kg/injection, schedule: Q04DX002 (ip), vehicle: saline) is listed as 0 of 6; the survivor count (dose: 6.25 mg/kg/injection, schedule: Q04DX002 (ip), vehicle: saline) was 0 of 6; the survivor count (dose: 12.5 mg/kg/injection, schedule: Q04DX002 (ip), vehicle: saline) is on record as 0 of 6; the survivor count (dose: 25.0 mg/kg/injection, schedule: Q04DX002 (ip), vehicle: saline) is reported as 0 of 6; the survivor count (dose: 50.0 mg/kg/injection, schedule: Q04DX002 (ip), vehicle: saline) is given as 0 of 6. For the same molecule, the survivor count (dose: 100.0 mg/kg/injection, schedule: Q04DX002 (ip), vehicle: saline) was 0 of 6.

On to `Brc1ccc2c(c1)-c1ccccc1C1=NCCN12`, for which the survivor count (dose: 40.0 mg/kg/injection, schedule: Q04DX003 (ip), vehicle: saline) is given as 1 of 6 and the survivor count (dose: 80.0 mg/kg/injection, schedule: Q04DX003 (ip), vehicle: saline) is listed as 0 of 6.

Consider `COc1cccc2c1C(=O)c1c(O)c3c(c(O)c1C2=O)CC(O)(C(=O)CO)CC3OC1CC(NC(=O)C(F)(F)F)C(OC2CC(N)C(O)C(C)O2)C(C)O1` (configuration not stated), for which, under “dose: 6.25 mg/kg/injection, schedule: Q04DX003 (ip), vehicle: water”, the T/C was 125 % of control.

Turning to `CC1(C)C(C=O)=CCC1CC(N)=O` (configuration not stated), the survivor count under setting [2] was 2 of 6.

Regarding `CC(=O)NS(=O)(=O)c1ccc(N/N=C(\C#N)C(N)=O)cc1`, under setting [1], the survivor count is recorded as 2 of 5.

Take `CC1=CC(O)C(O)C2(C)C1CC1OC(=O)CC3C(C)C(O)C(=O)C2C13CO` (configuration not stated): the survivor count is, setting by setting: (dose: 50.0 mg/kg/injection, schedule: Q01DX005 (ip), vehicle: saline with Tween-80) 3 of 6; (dose: 100.0 mg/kg/injection, schedule: Q01DX005 (ip), vehicle: saline with Tween-80) 1 of 6; (dose: 200.0 mg/kg/injection, schedule: Q01DX005 (ip), vehicle: saline with Tween-80) 0 of 6.

Consider `COC(=O)c1cccc2cccc(C(=O)N(C)CCN(C)C)c12`, for which, under setting [2], the survivor count is reported as 6 of 6.

With `O=C(O)/C=C(\Br)C(=O)O`, the survivor count (dose: 400.0 mg/kg/injection, schedule: Q04DX002 (ip), vehicle: saline) was 1 of 6.
